These are yes or no findings as the source states them, for the method shown. Binding seen in cells or lysates may run through a third protein. These calls come from enrichment with a bait or labelling near it, and not all partners need be listed.
Target: GFP-tagged EV71 3A protein (expressed in RD cells) (human enterovirus 71 (EV71))
Assay: affinity purification with mass spectrometry; RD cells transfected with GFP or GFP-3A; lysates immunoprecipitated with anti-GFP antibody; SDS-PAGE, Coomassie staining; precipitated proteins analysed by mass spectrometry

B1: Vacuolar protein sorting 25 (endogenous) (protein, UniProt Q9BRG1 1-176)
chain: MAMSFEWPWQYRFPPFFTLQPNVDTRQKQLAAWCSLVLSFCRLHKQSSMTVMEAQESPLFNNVKLQRKLPVESIQIVLEELRKKGNLEWLDKSKSSFLIMWRRPEEWGKLIYQWVSRSGQNNSVFTLYELTNGEDTEDEEFHGLDEATLLRALQALQQEHKAEIITVSDGRGVKFF
- binding: binds

Source: publication PMC9581156
